Some results were stated once for a whole list of compounds, not compound by compound.
System: MRSA
Assay: MRSA-infected full-thickness skin excision wound in mice: survival, wound closure, angiogenesis
Type: in vivo, Balb/C mice
Conditions: contaminated wounds
Method: Six to eight week old Balb/C male mice were used for the examples. MRSA culture and quantification were carried out, and suspensions were serially diluted and spread onto LB-agar plates in duplicate for 24 hours. After the incubation period, colony forming units (CFU) were counted, averaged, and expressed as CFU/ml. All animal handing procedures were in accordance with National Taiwan Ocean University (NTOU) guidelines. All procedures were approved by the Animal Care and Use Committee of NTOU.
The mice were housed individually to prevent fighting and further damage to the wounds, and were given ad libitum access to food and water. […]
Each wound was inoculated with 50 μl of broth mix containing 10^6 CFU of the indicated microorganism. […] At the end of the examination period, the animals were euthanized by CO2 inhalation and the wounds were assessed. […] Each wound was measured and then removed from the animal, with unwounded skin taken from the contralateral abdomen as a control.
Tracings were taken immediately after injury. For uncontaminated wounds, wound size was determined every second day. […] Wound areas were determined using the Macintosh Adobe Photoshop program and histological examination. The percentage of wound contraction was calculated as follows: % Wound contraction=(A0−At)/A0×100% […]

CN[C@H](CC(C)C)C(=O)N[C@H]1C(=O)N[C@@H](CC(N)=O)C(=O)N[C@H]2C(=O)N[C@H]3C(=O)N[C@H](C(=O)N[C@H](C(=O)O)c4cc(O)cc(O)c4-c4cc3ccc4O)[C@H](O)c3ccc(c(Cl)c3)Oc3cc2cc(c3O[C@@H]2O[C@H](CO)[C@@H](O)[C@H](O)[C@H]2O[C@H]2C[C@](C)(N)[C@H](O)[C@H](C)O2)Oc2ccc(cc2Cl)[C@H]1O [vancomycin]
day of full wound closure: ≤ 25 days

Source: patent publication US9750844B2, “Composition for use in wound healing in burns” (ACADEMIA SINICA, priority 2014, dated 2017)
